Data as given in the supplement of paper PMC10849652.
The other results are listed elsewhere or left out.

By UniProt entry, the sequences of proteins in these tests, tags left out. Where a name states a change or a piece, a line headed by the entry shows the natural chain unless it says otherwise.
UniProt Q86UP3: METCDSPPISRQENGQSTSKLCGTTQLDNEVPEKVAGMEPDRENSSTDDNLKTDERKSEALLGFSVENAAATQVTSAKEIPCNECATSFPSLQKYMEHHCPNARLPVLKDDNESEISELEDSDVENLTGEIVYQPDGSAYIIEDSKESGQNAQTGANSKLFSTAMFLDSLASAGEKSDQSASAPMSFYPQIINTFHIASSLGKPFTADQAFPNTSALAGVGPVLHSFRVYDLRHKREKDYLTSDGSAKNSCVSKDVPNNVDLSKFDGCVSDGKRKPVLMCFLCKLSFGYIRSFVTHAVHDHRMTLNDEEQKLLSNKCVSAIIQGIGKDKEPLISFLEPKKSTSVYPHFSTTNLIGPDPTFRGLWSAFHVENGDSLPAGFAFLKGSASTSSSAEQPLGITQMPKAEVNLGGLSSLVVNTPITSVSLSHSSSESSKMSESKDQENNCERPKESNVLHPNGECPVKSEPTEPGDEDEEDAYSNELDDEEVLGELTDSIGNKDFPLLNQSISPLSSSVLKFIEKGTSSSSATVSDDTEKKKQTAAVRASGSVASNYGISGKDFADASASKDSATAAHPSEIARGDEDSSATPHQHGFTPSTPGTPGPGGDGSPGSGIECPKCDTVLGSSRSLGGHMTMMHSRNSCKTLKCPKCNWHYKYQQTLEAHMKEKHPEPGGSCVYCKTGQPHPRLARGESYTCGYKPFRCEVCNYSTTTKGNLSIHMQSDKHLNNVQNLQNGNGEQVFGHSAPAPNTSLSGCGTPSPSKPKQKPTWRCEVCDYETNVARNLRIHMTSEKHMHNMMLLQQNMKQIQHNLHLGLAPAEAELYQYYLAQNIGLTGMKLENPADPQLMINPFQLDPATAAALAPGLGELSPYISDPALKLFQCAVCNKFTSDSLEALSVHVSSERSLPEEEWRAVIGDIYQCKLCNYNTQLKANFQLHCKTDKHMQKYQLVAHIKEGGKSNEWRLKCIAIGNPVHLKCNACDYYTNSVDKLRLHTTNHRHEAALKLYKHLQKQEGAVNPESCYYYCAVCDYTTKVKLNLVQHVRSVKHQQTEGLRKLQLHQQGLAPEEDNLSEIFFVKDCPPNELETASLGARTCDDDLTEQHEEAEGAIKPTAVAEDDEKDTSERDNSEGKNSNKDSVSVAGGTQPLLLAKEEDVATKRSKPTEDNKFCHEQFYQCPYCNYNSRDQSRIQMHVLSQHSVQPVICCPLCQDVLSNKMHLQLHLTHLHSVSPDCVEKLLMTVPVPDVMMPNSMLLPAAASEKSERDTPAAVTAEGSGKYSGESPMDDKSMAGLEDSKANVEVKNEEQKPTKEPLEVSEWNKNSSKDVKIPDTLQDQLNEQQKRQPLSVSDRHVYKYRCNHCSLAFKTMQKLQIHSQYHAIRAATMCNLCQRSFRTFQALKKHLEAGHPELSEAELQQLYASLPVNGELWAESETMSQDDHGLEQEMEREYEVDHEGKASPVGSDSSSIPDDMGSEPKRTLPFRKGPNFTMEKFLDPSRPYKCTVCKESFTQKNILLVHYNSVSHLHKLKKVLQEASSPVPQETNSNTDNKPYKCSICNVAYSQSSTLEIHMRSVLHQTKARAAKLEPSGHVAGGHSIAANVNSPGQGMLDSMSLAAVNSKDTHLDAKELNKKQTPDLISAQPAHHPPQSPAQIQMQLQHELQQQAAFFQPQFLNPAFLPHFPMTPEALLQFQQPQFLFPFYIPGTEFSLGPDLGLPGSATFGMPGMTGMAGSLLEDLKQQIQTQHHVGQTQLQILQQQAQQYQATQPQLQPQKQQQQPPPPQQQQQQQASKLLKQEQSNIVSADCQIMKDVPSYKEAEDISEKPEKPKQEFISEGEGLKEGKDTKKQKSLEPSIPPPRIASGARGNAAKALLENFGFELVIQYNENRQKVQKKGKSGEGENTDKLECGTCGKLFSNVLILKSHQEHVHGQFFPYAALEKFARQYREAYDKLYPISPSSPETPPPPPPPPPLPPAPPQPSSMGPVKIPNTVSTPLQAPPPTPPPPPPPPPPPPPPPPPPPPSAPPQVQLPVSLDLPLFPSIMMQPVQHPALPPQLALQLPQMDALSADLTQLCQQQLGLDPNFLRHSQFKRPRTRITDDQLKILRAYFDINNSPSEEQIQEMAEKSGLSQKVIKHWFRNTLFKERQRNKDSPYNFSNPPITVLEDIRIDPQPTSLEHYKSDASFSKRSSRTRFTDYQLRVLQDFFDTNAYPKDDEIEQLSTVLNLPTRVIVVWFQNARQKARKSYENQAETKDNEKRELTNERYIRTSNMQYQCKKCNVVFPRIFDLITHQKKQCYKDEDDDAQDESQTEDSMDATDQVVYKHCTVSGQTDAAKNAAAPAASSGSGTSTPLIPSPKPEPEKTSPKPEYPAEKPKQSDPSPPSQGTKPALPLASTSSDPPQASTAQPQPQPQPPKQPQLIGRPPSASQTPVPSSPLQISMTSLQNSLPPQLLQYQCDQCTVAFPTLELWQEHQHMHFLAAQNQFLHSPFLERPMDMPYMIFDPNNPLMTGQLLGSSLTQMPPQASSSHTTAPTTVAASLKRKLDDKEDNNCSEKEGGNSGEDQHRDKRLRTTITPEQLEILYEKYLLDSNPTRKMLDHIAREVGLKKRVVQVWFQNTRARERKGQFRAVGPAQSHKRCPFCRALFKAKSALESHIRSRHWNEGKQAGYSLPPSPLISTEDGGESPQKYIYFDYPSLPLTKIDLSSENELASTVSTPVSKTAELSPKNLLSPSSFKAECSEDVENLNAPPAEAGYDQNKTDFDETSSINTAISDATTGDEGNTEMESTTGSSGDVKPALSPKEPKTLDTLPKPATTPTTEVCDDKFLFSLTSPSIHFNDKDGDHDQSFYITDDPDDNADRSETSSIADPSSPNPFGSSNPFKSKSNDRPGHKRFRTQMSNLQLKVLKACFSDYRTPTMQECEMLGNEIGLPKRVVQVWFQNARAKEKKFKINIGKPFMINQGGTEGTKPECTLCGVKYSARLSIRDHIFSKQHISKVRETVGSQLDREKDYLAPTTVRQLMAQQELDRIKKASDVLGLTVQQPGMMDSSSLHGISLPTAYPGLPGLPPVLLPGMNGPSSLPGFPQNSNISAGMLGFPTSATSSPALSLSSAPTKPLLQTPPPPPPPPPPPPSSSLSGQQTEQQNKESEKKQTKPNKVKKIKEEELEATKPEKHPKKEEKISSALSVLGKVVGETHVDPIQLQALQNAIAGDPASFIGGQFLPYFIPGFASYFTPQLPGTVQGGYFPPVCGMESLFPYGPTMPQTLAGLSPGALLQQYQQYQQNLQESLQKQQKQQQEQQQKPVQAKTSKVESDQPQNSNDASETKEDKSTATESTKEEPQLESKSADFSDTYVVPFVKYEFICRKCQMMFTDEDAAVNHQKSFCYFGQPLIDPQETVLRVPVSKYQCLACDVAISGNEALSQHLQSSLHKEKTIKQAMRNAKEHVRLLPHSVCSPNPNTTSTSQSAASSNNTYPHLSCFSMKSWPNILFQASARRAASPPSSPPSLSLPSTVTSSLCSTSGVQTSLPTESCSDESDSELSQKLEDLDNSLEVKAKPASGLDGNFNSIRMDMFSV
UniProt Q9H1B5: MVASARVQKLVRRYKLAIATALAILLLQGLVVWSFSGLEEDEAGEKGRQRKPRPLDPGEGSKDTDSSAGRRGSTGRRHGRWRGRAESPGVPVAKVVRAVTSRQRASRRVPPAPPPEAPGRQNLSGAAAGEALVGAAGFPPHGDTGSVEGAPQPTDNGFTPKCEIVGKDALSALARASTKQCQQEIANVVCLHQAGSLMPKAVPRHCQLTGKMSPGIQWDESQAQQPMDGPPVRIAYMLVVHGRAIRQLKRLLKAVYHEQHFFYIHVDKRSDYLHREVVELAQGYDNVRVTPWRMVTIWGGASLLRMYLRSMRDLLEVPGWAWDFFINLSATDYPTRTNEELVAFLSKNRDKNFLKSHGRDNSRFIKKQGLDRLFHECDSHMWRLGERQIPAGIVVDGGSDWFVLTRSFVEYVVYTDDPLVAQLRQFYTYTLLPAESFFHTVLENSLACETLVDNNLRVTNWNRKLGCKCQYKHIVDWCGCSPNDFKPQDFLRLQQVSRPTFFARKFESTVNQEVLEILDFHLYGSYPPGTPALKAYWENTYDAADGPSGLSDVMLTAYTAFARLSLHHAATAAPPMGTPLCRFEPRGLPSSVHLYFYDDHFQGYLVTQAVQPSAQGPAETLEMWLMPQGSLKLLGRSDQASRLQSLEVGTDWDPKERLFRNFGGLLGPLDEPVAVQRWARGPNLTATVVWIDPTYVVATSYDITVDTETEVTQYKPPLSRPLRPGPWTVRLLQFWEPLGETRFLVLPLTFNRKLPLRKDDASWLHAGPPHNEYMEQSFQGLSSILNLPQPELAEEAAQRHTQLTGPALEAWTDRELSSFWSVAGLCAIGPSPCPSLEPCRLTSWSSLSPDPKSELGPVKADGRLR
UniProt Q96DA0: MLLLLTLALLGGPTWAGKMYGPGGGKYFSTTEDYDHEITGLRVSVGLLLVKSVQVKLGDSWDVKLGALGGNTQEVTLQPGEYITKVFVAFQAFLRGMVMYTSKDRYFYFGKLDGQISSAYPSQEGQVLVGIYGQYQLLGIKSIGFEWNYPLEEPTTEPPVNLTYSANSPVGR
UniProt O15156: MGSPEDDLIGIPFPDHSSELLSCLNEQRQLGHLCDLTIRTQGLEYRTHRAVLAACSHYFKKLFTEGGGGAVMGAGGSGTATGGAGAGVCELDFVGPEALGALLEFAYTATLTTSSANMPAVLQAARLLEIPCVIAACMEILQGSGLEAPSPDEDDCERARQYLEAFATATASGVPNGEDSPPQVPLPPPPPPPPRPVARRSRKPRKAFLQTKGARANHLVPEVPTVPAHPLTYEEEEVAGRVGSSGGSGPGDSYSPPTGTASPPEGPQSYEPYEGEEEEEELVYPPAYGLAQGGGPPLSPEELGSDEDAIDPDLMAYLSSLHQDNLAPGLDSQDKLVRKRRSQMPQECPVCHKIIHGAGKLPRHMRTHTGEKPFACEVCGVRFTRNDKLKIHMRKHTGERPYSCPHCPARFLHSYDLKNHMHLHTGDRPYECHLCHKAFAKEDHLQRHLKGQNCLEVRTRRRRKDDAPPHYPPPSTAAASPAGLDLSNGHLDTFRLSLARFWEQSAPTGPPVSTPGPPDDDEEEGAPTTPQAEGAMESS
UniProt Q5T750: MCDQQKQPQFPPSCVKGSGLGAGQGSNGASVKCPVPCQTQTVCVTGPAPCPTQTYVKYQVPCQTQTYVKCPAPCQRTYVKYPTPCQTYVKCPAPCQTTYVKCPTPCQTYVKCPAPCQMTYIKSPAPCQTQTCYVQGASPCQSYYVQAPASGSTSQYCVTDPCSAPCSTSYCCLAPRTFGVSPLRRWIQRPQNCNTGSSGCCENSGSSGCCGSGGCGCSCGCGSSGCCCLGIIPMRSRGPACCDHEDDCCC
UniProt Q9NPG8: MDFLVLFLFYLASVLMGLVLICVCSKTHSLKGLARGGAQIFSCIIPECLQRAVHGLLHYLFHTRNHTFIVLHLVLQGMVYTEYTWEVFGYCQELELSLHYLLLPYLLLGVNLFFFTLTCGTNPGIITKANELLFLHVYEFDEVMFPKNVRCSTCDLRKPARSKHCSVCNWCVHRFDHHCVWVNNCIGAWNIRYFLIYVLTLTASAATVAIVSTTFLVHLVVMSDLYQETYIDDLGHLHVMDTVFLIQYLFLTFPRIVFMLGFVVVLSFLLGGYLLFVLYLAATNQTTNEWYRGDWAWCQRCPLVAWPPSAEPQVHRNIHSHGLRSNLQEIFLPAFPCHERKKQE
UniProt Q9NXF8: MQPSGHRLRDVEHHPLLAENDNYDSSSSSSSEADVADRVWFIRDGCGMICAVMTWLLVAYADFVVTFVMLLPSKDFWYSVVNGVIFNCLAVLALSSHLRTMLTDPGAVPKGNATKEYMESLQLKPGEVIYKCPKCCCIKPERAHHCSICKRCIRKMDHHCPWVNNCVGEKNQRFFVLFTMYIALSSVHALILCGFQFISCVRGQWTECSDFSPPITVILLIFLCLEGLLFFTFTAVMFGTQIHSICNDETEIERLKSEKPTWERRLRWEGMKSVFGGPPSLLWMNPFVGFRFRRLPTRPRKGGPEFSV
UniProt Q969W1: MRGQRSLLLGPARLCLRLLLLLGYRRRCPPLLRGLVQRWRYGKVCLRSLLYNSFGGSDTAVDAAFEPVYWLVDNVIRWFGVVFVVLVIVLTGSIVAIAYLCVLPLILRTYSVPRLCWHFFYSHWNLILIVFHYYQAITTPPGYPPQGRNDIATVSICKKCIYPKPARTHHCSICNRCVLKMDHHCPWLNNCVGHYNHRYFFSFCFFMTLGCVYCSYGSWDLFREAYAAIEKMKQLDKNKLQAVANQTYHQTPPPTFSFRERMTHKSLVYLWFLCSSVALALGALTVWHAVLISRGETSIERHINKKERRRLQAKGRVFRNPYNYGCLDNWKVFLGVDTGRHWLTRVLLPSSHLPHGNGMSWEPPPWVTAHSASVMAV

Tests used:
Test in all cases: log2 fold change, soluble protein after heating vs DMSO (PISA); higher = thermal stabilisation; K562 cells, 10 uM, 30 min; active = over 0.2 and 3.5 SD of the protein, either way, in both replicates (recomputed)
[1] = compound: Cc1sc2c(c1C)C(c1ccc(Cl)cc1)=N[C@@H](CC(=O)OC(C)(C)C)c1nnc(C)n1-2
Summary of the method: (§1)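 Aliquots of K562 cells (2×10^6 cells/mL) treated with 10 μM compound for 30 min were heated for 3 min over 48°C-58°C. After pooling and extraction in PBS with 0.5% NP-40 at 4°C, soluble protein from a 21,000xg, 90 min spin was quantified by TMTpro 16plex LC-MS/MS with channel sums equalised. Thermal stability is expressed against control samples, from duplicates, as a log2 fold change.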

[2] = compound: CC1=C2C(=CC=C1)N=C(N(C2=O)C3=CC=CC=C3C)CN4C=NC5=C(N=CN=C54)N
Summary of the method: as §1

[3] = compound: C1=CC=C(C=C1)[C@H](COC2=CC3=C(C=C2)NC(=O)N3)NC(=O)C4=CC=CN(C4=O)CC5=CC(=C(C=C5)F)F
Summary of the method: as §1

[4] = compound: CC1=C(SC2=C1C(=N[C@H](C3=NN=C(N32)C)CC(=O)N)C4=CC=C(C=C4)Cl)C
Summary of the method: as §1

[5] = compound: c1ccc([C@@H]2C[C@H]2NC2CCNCC2)cc1
Summary of the method: as §1

| Target | log2 fold change [1] | log2 fold change [2] | log2 fold change [3] | log2 fold change [4] | log2 fold change [5] |
| --- | --- | --- | --- | --- | --- |
| ZFHX4 isoform 5 (UniProt Q86UP3) | inactive: 0.018 |  |  |  |  |
| ZCCHC17 (UniProt Q9NP64) |  | inactive: -0.124 |  |  |  |
| ZDHHC12 isoform 3 (UniProt Q96GR4) | inactive: 0.066 | inactive: -0.035 |  |  |  |
| ZBTB14 (UniProt O43829) | inactive: -0.123 |  | inactive: 0.28 | inactive: -0.187 | inactive: 0.013 |
| ZBTB10 (UniProt Q96DT7) | inactive: 0.361 |  | inactive: 0.017 | inactive: -0.048 | inactive: 0.035 |
| XIRP2 isoform 8 (UniProt A4UGR9) | inactive: 0.032 |  | inactive: -0.03 | inactive: -0.098 | inactive: -0.01 |
| ZC3H7B (UniProt Q9UGR2) | inactive: 0.429 |  |  | inactive: -0.035 | inactive: 0.139 |
| XRCC2 (UniProt O43543) |  |  |  | inactive: 0.211 | inactive: -0.144 |
| ZFYVE26 (UniProt Q68DK2) |  |  |  | inactive: 0.052 | inactive: -0.026 |
| ZNF22 (UniProt P17026) | inactive: -0.168 |  |  | inactive: -0.423 | inactive: 0.06 |
| XYLT2 (UniProt Q9H1B5) |  |  |  | inactive: 0.435 | inactive: -0.197 |
| ZFX isoform 3 (UniProt P17010) | inactive: 0.175 | inactive: -0.545 |  |  |  |
| ZFAND1 (UniProt Q8TCF1) | inactive: -0.171 | inactive: -0.085 | inactive: -0.244 |  |  |
| ZG16B (UniProt Q96DA0) |  | inactive: 0.041 | inactive: 0.206 |  |  |
| ZBTB7B isoform 2 (UniProt O15156) | inactive: 0.105 | inactive: -0.001 |  |  |  |
| ZNF106 (UniProt Q9H2Y7) |  | inactive: 0.122 | inactive: -0.098 |  |  |
| XP32 (UniProt Q5T750) |  |  | inactive: 0.28 | inactive: -0.058 | inactive: 0.224 |
| ZKSCAN4 (UniProt Q969J2) | inactive: 0.176 | inactive: -0.122 |  | inactive: -0.068 | inactive: 0.101 |
| ZDHHC4 (UniProt Q9NPG8) |  | inactive: 0.025 | inactive: -0.041 |  |  |
| ZEB2 (UniProt O60315) | inactive: 0.368 | inactive: 0.137 | inactive: -0.125 |  |  |
| ZFYVE21 isoform 2 (UniProt Q9BQ24) | inactive: 0.029 | inactive: 0.302 |  |  |  |
| ZBTB24 (UniProt O43167) | inactive: 0.065 |  |  | inactive: -0.302 | inactive: -0.027 |
| YWHAZ (UniProt E7ESK7) | inactive: 0.083 |  | inactive: 0.066 | inactive: 0.009 | inactive: 0.052 |
| ZDHHC7 isoform 2 (UniProt Q9NXF8) | inactive: 0.135 | inactive: 0.131 |  | inactive: 0.088 | inactive: 0.081 |
| XRCC1 (UniProt P18887) | inactive: 0.07 |  |  | inactive: 0.091 | inactive: 0.062 |
| ZKSCAN3 (UniProt Q9BRR0) |  |  |  | inactive: 0.075 | inactive: 0.082 |
| ZDHHC16 (UniProt Q969W1) |  | inactive: 0.029 |  |  |  |
| ZBTB7A (UniProt O95365) | inactive: 0.189 |  | inactive: 0.06 | inactive: -0.187 | inactive: 0.078 |

Some of the entries above in a different format.
Target,log2 fold change [1],log2 fold change [2],log2 fold change [3],log2 fold change [4],log2 fold change [5]
ZDHHC4 (UniProt Q9NPG8),,inactive: 0.025,inactive: -0.041,,
ZEB2 (UniProt O60315),inactive: 0.368,inactive: 0.137,inactive: -0.125,,
